Laboratory results: PubChem BioAssay AID1259424 (University of Nebraska Medical Center, 2018)
The deposit covers about 14,000 reagents; this is a random part of them. 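Higher correlation or smaller distance means closer resemblance to KSR1 loss; control wells, including KSR1 knockdowns, recur on many plates.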 Reagents against one gene are numbered here. The record does not give: the time to read-out.

Assay: 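Find knockdowns that reproduce the expression shifts seen after KSR1 loss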 (primary screen)
Cell system: human HCT116 colon cancer cells
Knock-down reagent: siRNA pool against human genes, 50 nM
Measurement: 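Log2 levels of six mRNAs (branched-DNA multiplex), adjusted by two reference genes and the non-targeting median, then scored against the average KSR1 knockdown pattern as Pearson r and euclidean distance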
Reading the numbers: mean correlation with KSR1 profile and KSR1 correlation: higher = expression change more like KSR1 knockdown; mean distance from KSR1 profile: higher = expression change less like KSR1 knockdown

Target gene,pool no.,mean correlation with KSR1 profile,mean distance from KSR1 profile,"KSR1 correlation, replicate 1","KSR1 correlation, replicate 2","KSR1 correlation, replicate 3"
KYAT1 (kynurenine aminotransferase 1),1,-0.114,3.58,-0.0101,-0.255,-0.186
"ABL2 (ABL proto-oncogene 2, non-receptor tyrosine kinase)",1,0.723,1.81,0.755,0.626,0.206
CYB561 (cytochrome b561),1,0.12,2.54,0.12,0.189,-0.0649
IFT52 (intraflagellar transport 52),1,-0.619,2.89,-0.519,-0.531,-0.596
USP19 (ubiquitin specific peptidase 19),1,-0.318,1.74,-0.122,-0.428,-0.563
SMAD3 (SMAD family member 3),1,0.216,3.05,0.38,0.356,0.42
SMAD3 (SMAD family member 3),2,-0.286,2.6,-0.161,-0.309,-0.289
FKBP7 (FKBP prolyl isomerase 7),1,-0.452,2.15,-0.53,-0.325,-0.398
VILL (villin like),1,0.0164,1.08,-0.001,0.127,0.141
LIAS (lipoic acid synthetase),1,-0.554,2.54,-0.339,-0.629,-0.535
CD177 (CD177 molecule),1,0.223,1.61,0.38,0.0346,0.24
TOM1L1 (target of myb1 like 1 membrane trafficking protein),1,0.59,0.712,0.558,0.583,0.412
SNX17 (sorting nexin 17),1,0.351,1.63,0.384,0.432,0.348
WDR43 (WD repeat domain 43),1,-0.621,5.13,-0.601,-0.681,-0.536
BIRC7 (baculoviral IAP repeat containing 7),1,-0.00489,2.22,0.0479,-0.00679,-0.146
HACD1 (3-hydroxyacyl-CoA dehydratase 1),1,0.248,0.923,0.357,0.0819,0.0387
HERC4 (HECT and RLD domain containing E3 ubiquitin protein ligase 4),1,-0.807,2.58,-0.747,-0.859,-0.723
HCFC2 (host cell factor C2),1,0.215,2.99,0.539,0.295,-0.104
EDF1 (endothelial differentiation related factor 1),1,-0.906,3.84,-0.811,-0.911,-0.839
TBX15 (T-box transcription factor 15),1,-0.398,2.77,-0.285,-0.474,-0.34
"METTL4 (methyltransferase 4, N6-adenosine)",1,-0.36,2.39,-0.525,-0.544,-0.378
MARCHF7 (membrane associated ring-CH-type finger 7),1,-0.131,1.02,-0.316,-0.512,-0.0694
SF3A2 (splicing factor 3a subunit 2),1,-0.203,3.79,-0.119,-0.112,-0.326
EEF2 (eukaryotic translation elongation factor 2),1,0.35,1.34,0.465,0.272,0.178
ZNF652 (zinc finger protein 652),1,-0.292,2.61,0.00946,-0.399,-0.401

In a second layout: results already given.
Target gene	pool no.	mean correlation with KSR1 profile	mean distance from KSR1 profile	KSR1 correlation, replicate 1	KSR1 correlation, replicate 2	KSR1 correlation, replicate 3
KYAT1 (kynurenine aminotransferase 1)	1	-0.114	3.58	-0.0101	-0.255	-0.186
ABL2 (ABL proto-oncogene 2, non-receptor tyrosine kinase)	1	0.723	1.81	0.755	0.626	0.206
CYB561 (cytochrome b561)	1	0.12	2.54	0.12	0.189	-0.0649
IFT52 (intraflagellar transport 52)	1	-0.619	2.89	-0.519	-0.531	-0.596

Next reagents:
Target gene,pool no.,mean correlation with KSR1 profile,mean distance from KSR1 profile,"KSR1 correlation, replicate 1","KSR1 correlation, replicate 2","KSR1 correlation, replicate 3"
TMEM209 (transmembrane protein 209),1,0.75,1.13,0.812,0.316,0.739
GPD1 (glycerol-3-phosphate dehydrogenase 1),1,-0.558,3.05,-0.496,-0.648,-0.485
SERPINE2 (serpin family E member 2),1,0.261,3.48,0.503,0.274,0.0423
SLC34A1,1,-0.232,4.91,0.158,-0.00459,-0.29
BRD7 (bromodomain containing 7),1,-0.538,1.99,-0.568,-0.543,-0.285
ASMT (acetylserotonin O-methyltransferase),1,0.218,1.92,0.48,0.194,-0.151
NPHP4 (nephrocystin 4),1,0.302,1.24,0.327,-0.0305,0.637
CRYL1 (crystallin lambda 1),1,-0.502,3.01,-0.442,-0.405,-0.35
"LAMTOR1 (late endosomal/lysosomal adaptor, MAPK and MTOR activator 1)",1,-0.711,1.67,-0.786,-0.526,-0.336
YIPF2 (Yip1 domain family member 2),1,-0.223,2.81,-0.403,-0.279,-0.00962
XRCC5 (X-ray repair cross complementing 5),1,-0.269,2.25,-0.369,-0.283,-0.0238
HOMER1 (homer scaffold protein 1),1,-0.604,2.8,-0.52,-0.625,-0.493
CCT6B (chaperonin containing TCP1 subunit 6B),1,0.129,1.6,-0.095,0.0503,0.228
ESF1 (ESF1 nucleolar pre-rRNA processing protein),1,0.358,2.34,0.41,0.197,0.471
PNLIP (pancreatic lipase),1,-0.412,2.12,-0.446,-0.447,-0.438
HOXB1 (homeobox B1),1,-0.366,3.97,-0.648,-0.384,0.0349
UPK1B (uroplakin 1B),1,0.194,1.08,0.567,-0.465,0.239
MZF1 (myeloid zinc finger 1),1,-0.174,2.44,-0.242,-0.196,0.138
FLYWCH1 (FLYWCH-type zinc finger 1),1,0.712,1.72,0.7,0.552,0.64
ELMO3 (engulfment and cell motility 3),1,0.362,2.42,0.365,0.561,0.198
EPC1 (enhancer of polycomb 1),1,0.42,1.12,0.575,0.436,0.223
HOXA2 (homeobox A2),1,0.1,2.57,0.324,-0.109,0.0943
IL23A (interleukin 23 subunit alpha),1,-0.798,3.91,-0.683,-0.584,-0.582
PDCD5 (programmed cell death 5),1,-0.118,3.33,-0.0733,-0.179,-0.0387
APBA1 (amyloid beta precursor protein binding family A member 1),1,-0.245,3.69,-0.123,-0.286,-0.414
